According to PubChem BioAssay AID1919008 (Molecular Pharmacology Branch, DTP, NCI, 2023):
Where “and” joins values, the source holds several entries; their conditions need not be identical. Equal entries are not always repeated. Further values from the same series stand in other lists.

Test system: DMS-114 complex spheroids with HUVEC/MSC, growth % test/control
Experiment: Anticancer human tumor DMS-114 cell line growth inhibition [AhR];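 further: spheroids exposed to agents for 7 days before readout; 100% = DMSO vehicle control wells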
Settings: active compounds read low; active means viability on the fitted dose curve at most 10% of control; inactive means the rest
Excerpt: Multicellular complex tumor spheroid response to aryl hydrocarbon receptor antagonists in combination with a variety of drugs and investigational agents in selected tumor cell lines
The current study was undertaken to assess response to aryl hydrocarbon receptor antagonists in combination with standard-of-care drugs and investigational agents in solid tumor complex spheroid models. Complex spheroids include a stromal component modeled by human endothelial cells (HUVEC) and fibroblasts modeled by human mesenchymal stem cells (MSCs). The concentration ranges selected for each drug and investigational agent were based upon clinically achievable concentrations if the clinical Cmax of the agent was known.
Compounds. The drugs and investigational agents: BAY 2416964 (NSC825713), GNF351 (NSC835774), CH-223191 (NSC835775), CPI-455 (NSC825282), aza-TdCyd (NSC777586), decitabine (NSC127716), belinostat (NSC758774), entinostat (NSC756642), pevonedistat (NSC761192), tazemetostat (NSC777109), talazoparib (NSC765396), olaparib (NSC753686), selinexor (NSC780203), nedisertib (M3814, NSC802822), bortezomib (NSC756655), venetoclax (NSC766270), doxorubicin (NSC123127), elimusertib (BAY189344, NSC800525), ceralasertib (AZD6738, NSC777638), TAK-243 (NSC785004), alisertib (NSC759677), etoposide (NSC141540), topotecan (NSC609699), eribulin (NSC707389), gemcitabine (NSC613327), carboplatin (NSC241240), cisplatin (NSC119875), and SN-38 (NSC673596) were obtained from the National Cancer Institute (NCI) Developmental Therapeutics Program Chemical Repository (32). The FDA-approved anticancer drug set is available from the Developmental Therapeutics Program at https://dtp.cancer.gov/organization/dscb/obtaining/available plates.htm. […] The stock solutions were prepared in dimethyl sulfoxide (DMSO, Sigma-Aldrich, St. Louis, MO, cat. D2650), except for the platinum compounds which were prepared in saline (Quality Biological, Gaithersburg, MD, cat. 114-055-101), at 800-fold the tested concentration and stored at -70 degrees C prior to their use. All drugs and investigational agents were tested over a range starting from a high concentration at or near the clinical Cmax and decreasing in half-log increments. If the clinical Cmax for an agent had not been determined, the highest concentration tested was 10 microM (Table 1).
Cell Culture. All cells were maintained in an incubator at 37 degrees C and 5% CO2 with 95% humidity. The PDC lines were cultured according to standard operating procedures established by the NCI PDMR (https://pdmr.cancer.gov). Briefly, all PDCs were thawed and cultured in Matrigel-coated flasks prepared with a working solution of 1X Ham's F-12 nutrient mix, without supplementation (Invitrogen, Waltham, MA, cat. 11765054), 100 U/mL penicillin-streptomycin (Invitrogen, cat. 15140122), and 2.5% Matrigel (Corning Inc., Corning, NY, cat. 354248) for the first three passages. All PDCs were cultured in complete DMEM/F-12 media containing advanced DMEM/F-12 (Invitrogen, cat. 12634028), 4.9% defined fetal bovine serum, heat inactivated (HyClone Laboratories Inc., Logan, UT, cat. SH30070.03HI), 389 ng/mL hydrocortisone (Sigma-Aldrich, cat. H4001), 9.7 ng/mL human EGF recombinant protein (Invitrogen, cat. PHG0313), 23.4 microg/mL adenine (Sigma-Aldrich, cat. A2786), 97.3 U/mL penicillin-streptomycin (Invitrogen, cat. 15140122), 1.9 mM L-glutamine (Invitrogen, cat. 25030081), and 9.7 microM Y-27632 dihydrochloride (Tocris Bioscience, Bristol, United Kingdom, cat. 1254). The PDCs were cultured in complete DMEM/F12 media without 10 microM Y-27632 dihydrochloride for at least two passages prior to the screen. The established cell lines NCI-H1341 and […] were cultured in DMEM/F-12, HEPES (Invitrogen, cat. 11330032), 5% defined fetal bovine serum (HyClone Laboratories Inc., cat. SH30070.03), ITS premix universal culture supplement [insulin (5 microg/mL), transferrin (5 microg/mL), and selenious acid (5 ng/mL)] […]

Measured: viability, T/C

Cc1cncc(-c2nc(NCCc3c[nH]c4ccccc34)c3ncn(C(C)C)c3n2)c1
inactive: compound 0.1 µM 93.8% [middle of 5 runs] | compound 0.316 µM 96.2% [middle of 4 runs] | compound 1 µM 92.4% and 103% and 95.2% | compound 3.16 µM 90.5% [middle of 5 runs] | compound 10 µM 38.5% [middle of 5 runs]

CC(CO)NC(=O)c1cc(-c2ccc(Cl)cc2)nn(-c2cnn(C)c2)c1=O (centres undefined)
inactive: compound 0.1 µM 96.1% and 93.6% and 92% | compound 0.316 µM 97% [middle of 4 runs] | compound 1 µM 88.3% and 92.9% and 106% | compound 10 µM 95% [middle of 6 runs]

Cc1ccccc1N=Nc1ccc(NC(=O)c2ccnn2C)c(C)c1
inactive: compound 0.1 µM 99.3% and 91% | compound 0.316 µM 103% and 98.7% and 93.9% | compound 1 µM 95% [middle of 5 runs] | compound 3.16 µM 97.4% [middle of 4 runs] | compound 10 µM 93.8% [middle of 4 runs]
